According to the supplement of paper PMC10849652:
This is one part of the list. Residues, ends and D or L forms follow the SMILES beside them. *: point of attachment. Cbz = O=C(OCc1ccccc1)*

Chains of the proteins cited; added tags and fusions are not shown. Lines headed by an entry give the natural chain unless they say otherwise; changes in a name come on top.
UniProt Q9Y3C6: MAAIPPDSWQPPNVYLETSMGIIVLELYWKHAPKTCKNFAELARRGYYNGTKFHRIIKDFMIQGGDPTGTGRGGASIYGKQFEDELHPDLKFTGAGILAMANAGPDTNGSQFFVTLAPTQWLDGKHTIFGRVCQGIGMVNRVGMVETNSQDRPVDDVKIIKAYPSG
UniProt P0DPB5: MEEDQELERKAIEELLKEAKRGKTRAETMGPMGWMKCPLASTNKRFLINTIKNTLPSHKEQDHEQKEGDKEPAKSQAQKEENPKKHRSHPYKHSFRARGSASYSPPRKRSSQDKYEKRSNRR
UniProt Q13356: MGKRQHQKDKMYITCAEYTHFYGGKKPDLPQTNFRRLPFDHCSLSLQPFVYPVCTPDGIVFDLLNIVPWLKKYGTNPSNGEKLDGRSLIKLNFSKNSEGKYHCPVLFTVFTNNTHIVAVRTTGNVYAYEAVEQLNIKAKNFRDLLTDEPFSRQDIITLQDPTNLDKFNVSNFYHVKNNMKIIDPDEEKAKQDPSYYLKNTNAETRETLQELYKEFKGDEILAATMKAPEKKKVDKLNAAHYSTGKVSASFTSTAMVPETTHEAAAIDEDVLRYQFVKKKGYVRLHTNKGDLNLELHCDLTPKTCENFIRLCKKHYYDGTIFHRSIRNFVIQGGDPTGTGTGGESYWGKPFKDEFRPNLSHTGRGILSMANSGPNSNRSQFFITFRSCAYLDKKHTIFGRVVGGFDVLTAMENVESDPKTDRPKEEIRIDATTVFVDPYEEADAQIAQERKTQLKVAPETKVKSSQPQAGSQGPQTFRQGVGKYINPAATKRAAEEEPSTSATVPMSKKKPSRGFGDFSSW
UniProt P29590: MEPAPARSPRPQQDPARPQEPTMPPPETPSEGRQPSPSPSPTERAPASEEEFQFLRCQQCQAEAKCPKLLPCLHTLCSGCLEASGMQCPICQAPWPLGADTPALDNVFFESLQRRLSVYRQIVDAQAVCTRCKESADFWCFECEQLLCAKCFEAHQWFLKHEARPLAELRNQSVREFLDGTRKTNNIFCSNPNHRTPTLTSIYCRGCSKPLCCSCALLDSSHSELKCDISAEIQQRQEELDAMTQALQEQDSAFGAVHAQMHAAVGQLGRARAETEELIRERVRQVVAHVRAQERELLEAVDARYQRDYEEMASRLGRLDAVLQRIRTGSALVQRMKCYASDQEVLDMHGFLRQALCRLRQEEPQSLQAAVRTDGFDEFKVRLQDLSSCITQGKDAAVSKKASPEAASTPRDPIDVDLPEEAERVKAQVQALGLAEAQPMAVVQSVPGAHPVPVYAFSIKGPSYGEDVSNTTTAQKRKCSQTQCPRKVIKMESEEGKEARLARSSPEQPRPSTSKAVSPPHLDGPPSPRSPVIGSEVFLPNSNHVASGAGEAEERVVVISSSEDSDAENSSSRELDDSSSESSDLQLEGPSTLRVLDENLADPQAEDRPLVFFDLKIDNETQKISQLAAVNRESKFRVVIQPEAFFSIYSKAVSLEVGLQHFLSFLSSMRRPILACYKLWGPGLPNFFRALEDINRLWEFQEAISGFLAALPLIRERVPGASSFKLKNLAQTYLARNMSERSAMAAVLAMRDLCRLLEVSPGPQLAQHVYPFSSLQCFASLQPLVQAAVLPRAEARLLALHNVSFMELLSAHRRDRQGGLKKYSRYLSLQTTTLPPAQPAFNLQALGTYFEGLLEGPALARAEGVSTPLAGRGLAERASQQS
UniProt P05423: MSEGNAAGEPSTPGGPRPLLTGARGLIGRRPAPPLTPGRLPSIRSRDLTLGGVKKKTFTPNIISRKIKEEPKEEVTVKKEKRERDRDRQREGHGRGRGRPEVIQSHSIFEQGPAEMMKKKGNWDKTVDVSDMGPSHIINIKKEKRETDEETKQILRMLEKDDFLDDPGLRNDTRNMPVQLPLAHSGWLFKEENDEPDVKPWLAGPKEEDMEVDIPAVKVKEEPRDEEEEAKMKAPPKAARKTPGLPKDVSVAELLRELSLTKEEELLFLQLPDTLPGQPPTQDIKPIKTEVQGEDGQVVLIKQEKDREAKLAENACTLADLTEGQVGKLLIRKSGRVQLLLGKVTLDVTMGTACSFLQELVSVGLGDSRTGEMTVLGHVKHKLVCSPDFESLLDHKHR
UniProt P0CAP2, whole entry, looked up: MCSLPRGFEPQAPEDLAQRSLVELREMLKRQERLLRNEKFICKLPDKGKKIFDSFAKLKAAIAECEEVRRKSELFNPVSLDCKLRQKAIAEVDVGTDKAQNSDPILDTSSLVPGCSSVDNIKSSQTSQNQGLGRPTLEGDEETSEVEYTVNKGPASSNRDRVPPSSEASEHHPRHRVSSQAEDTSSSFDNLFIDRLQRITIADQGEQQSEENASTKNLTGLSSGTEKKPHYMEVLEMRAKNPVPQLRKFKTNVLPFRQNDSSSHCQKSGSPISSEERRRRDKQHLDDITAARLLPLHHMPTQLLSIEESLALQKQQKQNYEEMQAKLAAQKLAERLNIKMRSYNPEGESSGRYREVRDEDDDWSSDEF
UniProt Q9Y2Y1: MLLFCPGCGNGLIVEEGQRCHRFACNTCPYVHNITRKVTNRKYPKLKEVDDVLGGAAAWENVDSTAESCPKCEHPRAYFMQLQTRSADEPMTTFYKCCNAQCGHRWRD
UniProt P09884: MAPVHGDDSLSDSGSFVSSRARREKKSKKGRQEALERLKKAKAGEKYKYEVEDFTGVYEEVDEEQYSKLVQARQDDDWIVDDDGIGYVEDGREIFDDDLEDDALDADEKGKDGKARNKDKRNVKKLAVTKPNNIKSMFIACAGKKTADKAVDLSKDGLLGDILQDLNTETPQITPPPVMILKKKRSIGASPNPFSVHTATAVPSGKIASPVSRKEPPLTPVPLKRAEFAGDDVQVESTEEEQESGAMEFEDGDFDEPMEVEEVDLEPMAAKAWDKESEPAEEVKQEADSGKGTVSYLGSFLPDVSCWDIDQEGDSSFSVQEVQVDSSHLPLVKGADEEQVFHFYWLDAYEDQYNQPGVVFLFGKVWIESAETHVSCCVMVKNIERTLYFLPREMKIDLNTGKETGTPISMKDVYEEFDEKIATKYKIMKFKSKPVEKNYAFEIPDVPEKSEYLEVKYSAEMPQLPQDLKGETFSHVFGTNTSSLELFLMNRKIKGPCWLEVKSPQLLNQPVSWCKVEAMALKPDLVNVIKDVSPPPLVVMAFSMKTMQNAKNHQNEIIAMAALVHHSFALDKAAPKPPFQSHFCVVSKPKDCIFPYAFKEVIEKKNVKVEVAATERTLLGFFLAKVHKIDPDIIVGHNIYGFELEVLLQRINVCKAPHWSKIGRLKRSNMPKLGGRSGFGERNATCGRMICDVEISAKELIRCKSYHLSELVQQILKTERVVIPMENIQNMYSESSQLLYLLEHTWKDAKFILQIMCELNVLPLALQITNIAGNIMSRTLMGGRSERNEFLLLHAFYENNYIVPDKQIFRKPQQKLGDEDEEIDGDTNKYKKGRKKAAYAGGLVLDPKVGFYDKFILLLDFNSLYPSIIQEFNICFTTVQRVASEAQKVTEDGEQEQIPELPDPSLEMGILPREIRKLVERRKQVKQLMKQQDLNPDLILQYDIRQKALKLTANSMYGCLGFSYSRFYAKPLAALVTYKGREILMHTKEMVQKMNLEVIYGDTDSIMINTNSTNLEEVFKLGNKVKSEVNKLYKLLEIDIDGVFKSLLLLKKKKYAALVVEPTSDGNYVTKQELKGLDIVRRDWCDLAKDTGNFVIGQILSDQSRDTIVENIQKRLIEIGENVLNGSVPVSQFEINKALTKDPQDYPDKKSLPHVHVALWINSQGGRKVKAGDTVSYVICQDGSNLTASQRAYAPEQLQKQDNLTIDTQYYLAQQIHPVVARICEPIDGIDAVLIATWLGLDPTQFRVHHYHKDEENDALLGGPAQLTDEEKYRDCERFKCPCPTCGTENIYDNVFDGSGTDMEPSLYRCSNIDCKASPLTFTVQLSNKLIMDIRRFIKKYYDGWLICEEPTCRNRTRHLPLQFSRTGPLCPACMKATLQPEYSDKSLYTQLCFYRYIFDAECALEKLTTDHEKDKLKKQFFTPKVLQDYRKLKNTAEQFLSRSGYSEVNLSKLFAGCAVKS
UniProt Q8WUA2: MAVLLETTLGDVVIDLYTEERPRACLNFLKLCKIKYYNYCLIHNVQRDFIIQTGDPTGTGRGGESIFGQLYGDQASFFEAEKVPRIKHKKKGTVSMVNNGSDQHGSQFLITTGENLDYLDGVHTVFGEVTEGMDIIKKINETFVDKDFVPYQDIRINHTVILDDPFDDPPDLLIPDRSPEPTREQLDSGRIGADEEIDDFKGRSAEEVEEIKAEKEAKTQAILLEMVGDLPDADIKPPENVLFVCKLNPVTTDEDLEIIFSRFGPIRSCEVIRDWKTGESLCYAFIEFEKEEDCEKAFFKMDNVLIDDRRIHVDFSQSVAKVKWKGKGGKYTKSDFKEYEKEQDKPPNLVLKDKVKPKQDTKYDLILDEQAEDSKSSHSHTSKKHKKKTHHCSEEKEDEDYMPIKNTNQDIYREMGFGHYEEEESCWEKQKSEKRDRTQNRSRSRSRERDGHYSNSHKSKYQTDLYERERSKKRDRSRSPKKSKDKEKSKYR
UniProt Q8IWE5: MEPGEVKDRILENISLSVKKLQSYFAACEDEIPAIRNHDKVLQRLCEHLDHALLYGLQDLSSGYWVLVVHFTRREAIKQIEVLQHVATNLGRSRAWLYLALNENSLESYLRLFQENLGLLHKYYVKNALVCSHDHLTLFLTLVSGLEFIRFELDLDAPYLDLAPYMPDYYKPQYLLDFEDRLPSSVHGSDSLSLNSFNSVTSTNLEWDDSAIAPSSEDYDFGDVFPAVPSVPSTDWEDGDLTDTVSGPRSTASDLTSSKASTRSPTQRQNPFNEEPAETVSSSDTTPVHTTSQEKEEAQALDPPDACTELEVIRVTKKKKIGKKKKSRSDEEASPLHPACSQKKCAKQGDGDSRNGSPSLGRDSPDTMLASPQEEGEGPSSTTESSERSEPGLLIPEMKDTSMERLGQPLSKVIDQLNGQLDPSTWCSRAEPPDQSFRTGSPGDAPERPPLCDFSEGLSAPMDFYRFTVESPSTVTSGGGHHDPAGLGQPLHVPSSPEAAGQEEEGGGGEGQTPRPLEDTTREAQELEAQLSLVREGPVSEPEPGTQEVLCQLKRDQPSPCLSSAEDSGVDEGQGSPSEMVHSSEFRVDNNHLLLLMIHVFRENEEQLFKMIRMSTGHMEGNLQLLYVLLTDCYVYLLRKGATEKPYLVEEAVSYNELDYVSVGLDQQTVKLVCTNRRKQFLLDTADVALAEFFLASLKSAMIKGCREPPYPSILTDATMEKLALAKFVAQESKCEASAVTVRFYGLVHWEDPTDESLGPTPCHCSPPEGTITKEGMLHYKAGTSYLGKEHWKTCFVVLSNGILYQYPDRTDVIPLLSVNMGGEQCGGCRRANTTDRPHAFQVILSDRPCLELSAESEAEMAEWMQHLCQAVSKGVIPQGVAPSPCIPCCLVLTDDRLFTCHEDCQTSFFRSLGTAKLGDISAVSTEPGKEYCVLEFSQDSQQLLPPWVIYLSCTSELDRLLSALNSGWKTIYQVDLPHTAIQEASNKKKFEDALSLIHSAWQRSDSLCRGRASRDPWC
UniProt Q14181: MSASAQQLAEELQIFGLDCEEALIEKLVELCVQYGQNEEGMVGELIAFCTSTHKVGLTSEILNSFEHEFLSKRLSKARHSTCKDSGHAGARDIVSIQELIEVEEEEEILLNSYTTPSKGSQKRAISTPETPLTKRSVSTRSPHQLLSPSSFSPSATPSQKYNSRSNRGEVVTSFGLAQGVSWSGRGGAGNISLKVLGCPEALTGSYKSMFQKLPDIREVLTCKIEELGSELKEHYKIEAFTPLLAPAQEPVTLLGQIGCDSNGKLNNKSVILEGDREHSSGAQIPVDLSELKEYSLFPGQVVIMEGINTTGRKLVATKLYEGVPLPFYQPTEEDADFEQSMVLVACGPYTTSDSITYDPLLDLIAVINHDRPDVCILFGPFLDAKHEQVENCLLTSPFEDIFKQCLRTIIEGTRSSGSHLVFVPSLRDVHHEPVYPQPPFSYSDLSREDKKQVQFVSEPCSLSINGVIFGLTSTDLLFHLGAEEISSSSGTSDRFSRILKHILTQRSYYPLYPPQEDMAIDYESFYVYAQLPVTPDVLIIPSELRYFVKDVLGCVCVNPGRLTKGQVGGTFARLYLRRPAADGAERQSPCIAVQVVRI

Experiments:
Test in all cases: log2 fold change, soluble protein after heating vs DMSO (PISA); higher = thermal stabilisation; K562 cells, 10 uM, 30 min; active = over 0.2 and 3.5 SD of the protein, either way, in both replicates (recomputed)
erlotinib = compound: C#Cc1cccc(Nc2ncnc3cc(OCCOC)c(OCCOC)cc23)c1 [erlotinib]
Method in brief: (§1)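 Thermal stability values are relative to control samples and come from duplicates. They are expressed as log2 fold changes. For measurement, K562 cells (2×10^6 cells/mL) received 10 μM compound for 30 min, and aliquots were heated for 3 min over 48°C-58°C, pooled, and extracted at 4°C in PBS with 0.5% NP-40. Soluble protein, the supernatant after 21,000xg for 90 min, was quantified by TMTpro 16plex LC-MS/MS with equalised channel sums.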

[1] = compound: C/C(=N\NC(=O)C1=CC(=CC=C1)S(=O)(=O)N2CCOCC2)/C3=C(C=CC(=C3)Cl)O
Method in brief: as §1

[2] = compound: C1=CC(=C(C=C1Cl)C2=NC3=NC=CN=C3C(=N2)NC4=CC=NC=C4)F
Method in brief: as §1

[3] = compound: C1=CC(=CC=C1C2=NC3=C(N2)C=C(C=C3)C(=O)N)OC4=CC=C(C=C4)Cl
Method in brief: as §1

[4] = compound: C1=CC2=C(C=CC(=C2)/C=C\3/C(=O)NC(=NCC4=CC=CS4)S3)N=C1
Method in brief: as §1

[5] = compound: C1=CC2=NC=CN=C2C=C1/C=C/3\C(=O)NC(=O)S3
Method in brief: as §1

[6] = compound: C1=CC=C(C=C1)C2=NC(=C(N2)C3=CC=NC=C3)C4=CC(=C(C=C4)Cl)O
Method in brief: as §1

[7] = compound: C1=CC=C2C(=C1)C3=NNC4=CC=CC(=C43)C2=O
Method in brief: as §1

[8] = compound: C1CCN(C1)C(=O)NC2=CC=CC(=C2)NC3=NC=C(C(=N3)NCCC4=CN=CN4)Br
Method in brief: as §1

[9] = compound: C1CN(CCC1(CC2=CC=C(C=C2)Cl)N)C3=NC=NC4=C3C=CN4
Method in brief: as §1

IRAK-1-4 Inhibitor I = compound: C1COCCN1CCN2C3=CC=CC=C3N=C2NC(=O)C4=CC(=CC=C4)[N+](=O)[O-] [IRAK-1-4 Inhibitor I]
Method in brief: as §1

ibrutinib = compound: C=CC(=O)N1CCC[C@@H](n2nc(-c3ccc(Oc4ccccc4)cc3)c3c(N)ncnc32)C1 [ibrutinib]
Method in brief: as §1

[10] = compound: CC(=O)c1cnc2ccc(-c3cc(Cl)c(O)c(Cl)c3)nc2c1N[C@H]1CC[C@H](CN(C)C)CC1
Method in brief: as §1

ralimetinib = compound: CC(C)(C)Cn1c(N)nc2ccc(-c3[nH]c(C(C)(C)C)nc3-c3ccc(F)cc3)nc21 [ralimetinib]
Method in brief: as §1

[11] = compound: CC(C)(O)CC(=O)NCCn1ccc2ncnc(Nc3ccc(Oc4cccc(C(F)(F)F)c4)c(Cl)c3)c21
Method in brief: as §1

[12] = compound: CC(C)C1=C2N=C(C=C(N2N=C1)NCC3=CC=CC=C3)NCCCCCCN
Method in brief: as §1

[13] = compound: CC(C)C[C@@H](C=O)NC(=O)[C@H](CC(C)C)NC(=O)[C@H](CC(C)C)NC(=O)OCc1ccccc1
Method in brief: as §1

pinometostat = compound: CC(C)N(C[C@H]1O[C@@H](n2cnc3c(N)ncnc32)[C@H](O)[C@@H]1O)[C@H]1C[C@@H](CCc2nc3cc(C(C)(C)C)ccc3[nH]2)C1 [pinometostat]
Method in brief: as §1

[14] = compound: CC1=C(C2=C(C=C1)C(=O)C3=CC=CC=C3N2CCCN)C
Method in brief: as §1

Target | log2 fold change (erlotinib) | log2 fold change [1] | log2 fold change [2] | log2 fold change [3] | log2 fold change [4] | log2 fold change [5] | log2 fold change [6] | log2 fold change [7] | log2 fold change [8] | log2 fold change [9] | log2 fold change (IRAK-1-4 Inhibitor I) | log2 fold change (ibrutinib) | log2 fold change [10] | log2 fold change (ralimetinib) | log2 fold change [11] | log2 fold change [12] | log2 fold change [13] | log2 fold change (pinometostat) | log2 fold change [14]
PPIL1 (UniProt Q9Y3C6) | inactive: 0.019 | inactive: -0.009 | inactive: -0.027 | inactive: -0.012 | inactive: 0.024 | inactive: 0.061 | inactive: -0.013 | inactive: -0.025 | inactive: -0.007 | inactive: -0.027 | inactive: -0.046 | inactive: -0.011 | active: 0.225 | inactive: -0.02 | inactive: -0.038 | inactive: 0.08 | inactive: 0.09 | inactive: 0.082 | inactive: 0.172
POLR2A (UniProt P24928) | inactive: -0.018 | inactive: -0.019 | inactive: -0.008 | inactive: 0.024 | inactive: 0.013 | inactive: 0.039 | inactive: 0.019 | inactive: 0.026 | inactive: 0.111 | inactive: -0.042 | inactive: -0.029 | inactive: 0.054 | active: 0.342 | inactive: 0.011 | inactive: -0.065 | inactive: 0.19 | inactive: 0.005 | inactive: -0.004 | inactive: 0.033
POLR1D (UniProt P0DPB5) | inactive: -0.084 | inactive: -0.015 | inactive: -0.082 | inactive: 0.064 | inactive: -0.002 | inactive: 0.14 | inactive: -0.085 | inactive: -0.078 | inactive: 0.029 | inactive: -0.037 | inactive: -0.084 | inactive: 0.237 | inactive: -0.137 | inactive: 0.039 | inactive: 0.19 | inactive: 0.041 | inactive: 0.13 | inactive: 0.055 | inactive: -0.013
PPIL2 (UniProt Q13356) | inactive: 0.061 | inactive: 0.072 | inactive: 0.064 | inactive: -0.033 | inactive: 0.047 | inactive: 0.004 | inactive: 0.026 | inactive: 0.067 | inactive: -0.052 | inactive: -0.079 | inactive: -0.097 | inactive: -0.048 | inactive: -0.077 | inactive: 0 | inactive: -0.081 | inactive: -0.044 | inactive: 0.096 | inactive: -0.063 | inactive: 0.062
PML (UniProt P29590) | inactive: 0.045 | inactive: -0.073 | inactive: 0.015 | inactive: -0.022 | inactive: -0.043 | inactive: 0.071 | inactive: 0.033 | inactive: 0.007 | inactive: 0.002 | inactive: -0.005 | inactive: 0.031 | inactive: 0.006 | inactive: 0.052 | inactive: 0.045 | inactive: 0.012 | inactive: -0.025 | inactive: -0.05 | inactive: -0.021 | inactive: -0.035
POLR2E (UniProt P19388) | inactive: 0.022 | inactive: 0.021 | inactive: 0.038 | inactive: 0.057 | inactive: -0.054 | inactive: 0.007 | inactive: 0.013 | inactive: -0.02 | inactive: -0.01 | inactive: 0.011 | inactive: -0.106 | inactive: -0.012 | inactive: 0.218 | inactive: -0.041 | inactive: -0.061 | inactive: 0.081 | inactive: 0.065 | inactive: 0.108 | inactive: -0.014
POTEI (UniProt P0CG38) | inactive: 0.023 | inactive: 0.007 | inactive: -0.009 | inactive: 0.011 | inactive: -0.037 | inactive: -0.052 | inactive: 0.045 | inactive: 0.038 | inactive: -0.003 | inactive: 0.046 | inactive: -0.176 | inactive: 0.046 | inactive: 0.052 | inactive: 0.003 | inactive: 0.015 | inactive: 0.059 | inactive: -0.025 | inactive: -0.179 | inactive: 0.012
POLR2B (UniProt P30876) | inactive: -0.008 | inactive: -0.014 | inactive: -0.025 | inactive: 0.024 | inactive: -0.006 | inactive: 0.047 | inactive: 0.045 | inactive: 0.009 | inactive: 0.068 | inactive: -0.063 | inactive: -0.095 | inactive: -0.002 | active: 0.262 | inactive: 0.066 | inactive: -0.047 | inactive: 0.08 | inactive: 0.03 | inactive: 0.037 | inactive: 0.03
POLR3D (UniProt P05423) | inactive: 0.068 | active: -0.665 | inactive: -0.087 | inactive: -0.031 | active: -0.733 | inactive: -0.022 | inactive: 0.076 | inactive: -0.004 | inactive: -0.005 | inactive: 0.372 | inactive: -0.017 | inactive: 0.766 | inactive: 0.022 | inactive: 0.043 | inactive: -0.1 | inactive: -0.158 | inactive: -0.002 | inactive: 0.109 | inactive: 0.009
POLR2M (UniProt P0CAP2) | inactive: -0.042 | inactive: -0.033 | inactive: -0.054 | inactive: 0.004 | inactive: 0.05 | inactive: 0.055 | inactive: 0.041 | inactive: -0.009 | inactive: 0.017 | inactive: -0.024 | inactive: -0.022 | inactive: -0.017 | inactive: 0.067 | inactive: 0.016 | inactive: 0.001 | inactive: 0.059 | inactive: 0.058 | inactive: -0.02 | inactive: 0
POLR3K (UniProt Q9Y2Y1) | inactive: -0.082 | inactive: 0.005 | inactive: -0.005 | inactive: 0.007 | inactive: -0.057 | inactive: -0.038 | active: -0.235 | inactive: -0.056 | inactive: -0.006 | inactive: 0.031 | inactive: 0.026 | inactive: 0.044 | inactive: -0.013 | inactive: -0.084 | inactive: -0.07 | inactive: 0.124 | inactive: 0.089 | inactive: 0.043 | inactive: -0.039
POM121 (UniProt Q96HA1) | inactive: -0.013 | inactive: -0.075 | inactive: -0.127 | inactive: 0.033 | inactive: 0.118 | inactive: -0.008 | inactive: -0.137 | inactive: -0.185 | inactive: -0.087 | inactive: -0.106 | inactive: -0.022 | inactive: 0.005 | inactive: -0.164 | inactive: 0.083 | inactive: 0.016 | inactive: -0.241 | inactive: 0.178 | inactive: 0.065 | inactive: -0.057
POLA1 (UniProt P09884) | inactive: 0.03 | inactive: 0.038 | inactive: 0.042 | inactive: -0.023 | inactive: -0.032 | inactive: 0 | inactive: -0.013 | inactive: 0.021 | inactive: 0.006 | inactive: -0.022 | inactive: -0.034 | inactive: -0.06 | inactive: -0.02 | inactive: -0.018 | inactive: -0.066 | inactive: -0.151 | inactive: 0.005 | inactive: -0.027 | inactive: -0.066
POLR2I (UniProt P36954) | inactive: -0.058 | inactive: -0.107 | inactive: 0.108 | inactive: 0.068 | inactive: -0.073 | inactive: -0.117 | inactive: 0.079 | inactive: -0.043 | inactive: -0.092 | inactive: 0 | inactive: 0.045 | inactive: 0.136 | active: 0.425 | inactive: -0.079 | inactive: 0.035 | inactive: 0.389 | inactive: 0.03 | inactive: -0.024 | inactive: 0.324
PPIL4 (UniProt Q8WUA2) | inactive: 0.011 | inactive: 0.056 | inactive: -0.049 | inactive: 0.043 | inactive: -0.023 | inactive: 0 | inactive: 0.04 | inactive: -0.009 | inactive: -0.06 | inactive: -0.044 | inactive: -0.102 | inactive: 0.013 | active: -0.27 | inactive: 0.101 | inactive: 0.04 | inactive: -0.114 | inactive: -0.065 | inactive: 0.055 | inactive: 0.066
PLEKHM2 (UniProt Q8IWE5) | inactive: 0.228 | inactive: 0.07 | inactive: 0.034 | inactive: -0.03 | inactive: 0.075 | inactive: 0.069 | inactive: 0.082 | inactive: -0.065 | inactive: -0.005 | inactive: -0.066 | inactive: -0.018 | inactive: -0.073 | inactive: -0.085 | inactive: 0.162 | inactive: 0.016 | inactive: -0.034 | inactive: -0.102 | inactive: -0.042 | inactive: 0.016
POLA2 (UniProt Q14181) | inactive: 0.042 | inactive: 0.086 | inactive: 0.021 | inactive: -0.033 | inactive: 0.048 | inactive: 0.048 | inactive: -0.044 | inactive: -0.013 | inactive: -0.063 | inactive: -0.004 | inactive: 0.015 | inactive: -0.038 | inactive: -0.073 | inactive: -0.028 | inactive: -0.083 | active: -0.258 | inactive: 0.011 | inactive: 0.041 | inactive: -0.021

A stretch from the list above, as a working copy:
Target | log2 fold change (erlotinib) | log2 fold change [1] | log2 fold change [2] | log2 fold change [3] | log2 fold change [4] | log2 fold change [5] | log2 fold change [6] | log2 fold change [7] | log2 fold change [8] | log2 fold change [9] | log2 fold change (IRAK-1-4 Inhibitor I) | log2 fold change (ibrutinib) | log2 fold change [10] | log2 fold change (ralimetinib) | log2 fold change [11] | log2 fold change [12] | log2 fold change [13] | log2 fold change (pinometostat) | log2 fold change [14]
POLR3D (UniProt P05423) | inactive: 0.068 | active: -0.665 | inactive: -0.087 | inactive: -0.031 | active: -0.733 | inactive: -0.022 | inactive: 0.076 | inactive: -0.004 | inactive: -0.005 | inactive: 0.372 | inactive: -0.017 | inactive: 0.766 | inactive: 0.022 | inactive: 0.043 | inactive: -0.1 | inactive: -0.158 | inactive: -0.002 | inactive: 0.109 | inactive: 0.009
POLR2M (UniProt P0CAP2) | inactive: -0.042 | inactive: -0.033 | inactive: -0.054 | inactive: 0.004 | inactive: 0.05 | inactive: 0.055 | inactive: 0.041 | inactive: -0.009 | inactive: 0.017 | inactive: -0.024 | inactive: -0.022 | inactive: -0.017 | inactive: 0.067 | inactive: 0.016 | inactive: 0.001 | inactive: 0.059 | inactive: 0.058 | inactive: -0.02 | inactive: 0
POLR3K (UniProt Q9Y2Y1) | inactive: -0.082 | inactive: 0.005 | inactive: -0.005 | inactive: 0.007 | inactive: -0.057 | inactive: -0.038 | active: -0.235 | inactive: -0.056 | inactive: -0.006 | inactive: 0.031 | inactive: 0.026 | inactive: 0.044 | inactive: -0.013 | inactive: -0.084 | inactive: -0.07 | inactive: 0.124 | inactive: 0.089 | inactive: 0.043 | inactive: -0.039
POM121 (UniProt Q96HA1) | inactive: -0.013 | inactive: -0.075 | inactive: -0.127 | inactive: 0.033 | inactive: 0.118 | inactive: -0.008 | inactive: -0.137 | inactive: -0.185 | inactive: -0.087 | inactive: -0.106 | inactive: -0.022 | inactive: 0.005 | inactive: -0.164 | inactive: 0.083 | inactive: 0.016 | inactive: -0.241 | inactive: 0.178 | inactive: 0.065 | inactive: -0.057
POLA1 (UniProt P09884) | inactive: 0.03 | inactive: 0.038 | inactive: 0.042 | inactive: -0.023 | inactive: -0.032 | inactive: 0 | inactive: -0.013 | inactive: 0.021 | inactive: 0.006 | inactive: -0.022 | inactive: -0.034 | inactive: -0.06 | inactive: -0.02 | inactive: -0.018 | inactive: -0.066 | inactive: -0.151 | inactive: 0.005 | inactive: -0.027 | inactive: -0.066
